# Laboratory results reported in the supplement of paper PMC10849652.
# Chains of the proteins cited; added tags and fusions are not shown. Lines headed by an entry give the natural chain unless they say otherwise; changes in a name come on top.
# UniProt O75420: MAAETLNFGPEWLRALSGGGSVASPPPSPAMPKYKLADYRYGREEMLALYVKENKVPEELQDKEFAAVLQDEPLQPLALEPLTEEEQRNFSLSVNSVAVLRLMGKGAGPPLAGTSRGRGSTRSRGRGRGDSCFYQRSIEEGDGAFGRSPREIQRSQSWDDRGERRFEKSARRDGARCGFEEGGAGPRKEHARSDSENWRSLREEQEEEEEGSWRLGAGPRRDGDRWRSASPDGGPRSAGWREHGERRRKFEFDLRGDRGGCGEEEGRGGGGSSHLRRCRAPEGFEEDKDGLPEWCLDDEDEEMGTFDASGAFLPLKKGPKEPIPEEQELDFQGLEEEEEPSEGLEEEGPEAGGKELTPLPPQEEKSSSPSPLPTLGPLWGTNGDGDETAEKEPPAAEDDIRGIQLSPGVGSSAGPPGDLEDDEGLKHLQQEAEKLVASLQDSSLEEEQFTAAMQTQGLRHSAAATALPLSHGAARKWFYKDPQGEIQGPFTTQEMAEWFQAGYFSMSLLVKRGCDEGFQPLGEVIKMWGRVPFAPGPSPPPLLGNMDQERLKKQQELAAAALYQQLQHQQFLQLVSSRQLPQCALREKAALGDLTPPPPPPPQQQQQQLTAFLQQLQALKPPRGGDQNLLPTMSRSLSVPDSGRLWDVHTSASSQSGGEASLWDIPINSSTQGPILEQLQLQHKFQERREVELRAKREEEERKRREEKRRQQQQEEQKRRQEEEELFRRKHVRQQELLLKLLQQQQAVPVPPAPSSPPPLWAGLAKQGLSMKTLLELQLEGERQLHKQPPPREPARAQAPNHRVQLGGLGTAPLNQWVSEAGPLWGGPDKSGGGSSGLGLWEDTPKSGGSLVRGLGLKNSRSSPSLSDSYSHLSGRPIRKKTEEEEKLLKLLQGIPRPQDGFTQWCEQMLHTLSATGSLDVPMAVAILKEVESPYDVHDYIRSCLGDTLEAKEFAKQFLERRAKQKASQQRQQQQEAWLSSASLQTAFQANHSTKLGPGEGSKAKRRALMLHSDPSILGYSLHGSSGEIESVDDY
# UniProt Q8TD30: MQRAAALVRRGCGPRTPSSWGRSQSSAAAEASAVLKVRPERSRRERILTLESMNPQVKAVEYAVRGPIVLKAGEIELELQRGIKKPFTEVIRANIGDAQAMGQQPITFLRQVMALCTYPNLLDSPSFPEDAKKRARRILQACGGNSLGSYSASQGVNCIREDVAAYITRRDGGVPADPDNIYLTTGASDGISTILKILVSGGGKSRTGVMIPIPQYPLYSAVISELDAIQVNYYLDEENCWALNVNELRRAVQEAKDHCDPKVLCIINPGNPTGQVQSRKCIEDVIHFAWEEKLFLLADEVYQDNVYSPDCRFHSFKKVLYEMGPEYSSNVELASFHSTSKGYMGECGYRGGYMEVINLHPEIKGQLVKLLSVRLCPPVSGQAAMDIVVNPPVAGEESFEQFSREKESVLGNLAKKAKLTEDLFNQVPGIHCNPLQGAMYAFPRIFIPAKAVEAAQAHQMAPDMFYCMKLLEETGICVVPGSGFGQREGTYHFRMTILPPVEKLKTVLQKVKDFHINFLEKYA
# UniProt Q13227: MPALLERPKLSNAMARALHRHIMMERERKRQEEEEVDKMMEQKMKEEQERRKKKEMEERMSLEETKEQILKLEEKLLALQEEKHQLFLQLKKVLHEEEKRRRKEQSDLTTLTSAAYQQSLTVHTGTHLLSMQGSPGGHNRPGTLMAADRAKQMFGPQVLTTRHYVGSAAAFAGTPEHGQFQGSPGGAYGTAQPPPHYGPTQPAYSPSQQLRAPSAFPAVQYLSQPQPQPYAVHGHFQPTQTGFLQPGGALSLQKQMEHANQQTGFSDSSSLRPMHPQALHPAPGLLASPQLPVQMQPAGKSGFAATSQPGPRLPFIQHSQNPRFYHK
# UniProt Q8NBJ4: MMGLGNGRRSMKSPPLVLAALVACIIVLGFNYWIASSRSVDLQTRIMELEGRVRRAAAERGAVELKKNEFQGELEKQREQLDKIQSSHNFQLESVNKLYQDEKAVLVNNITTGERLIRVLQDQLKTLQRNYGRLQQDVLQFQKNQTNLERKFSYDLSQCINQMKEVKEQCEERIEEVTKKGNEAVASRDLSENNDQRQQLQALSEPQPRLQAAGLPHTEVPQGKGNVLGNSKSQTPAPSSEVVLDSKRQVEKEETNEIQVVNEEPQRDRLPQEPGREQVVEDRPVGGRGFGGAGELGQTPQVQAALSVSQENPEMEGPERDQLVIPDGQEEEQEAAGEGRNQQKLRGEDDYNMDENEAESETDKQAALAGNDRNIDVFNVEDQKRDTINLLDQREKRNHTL
# UniProt O60443: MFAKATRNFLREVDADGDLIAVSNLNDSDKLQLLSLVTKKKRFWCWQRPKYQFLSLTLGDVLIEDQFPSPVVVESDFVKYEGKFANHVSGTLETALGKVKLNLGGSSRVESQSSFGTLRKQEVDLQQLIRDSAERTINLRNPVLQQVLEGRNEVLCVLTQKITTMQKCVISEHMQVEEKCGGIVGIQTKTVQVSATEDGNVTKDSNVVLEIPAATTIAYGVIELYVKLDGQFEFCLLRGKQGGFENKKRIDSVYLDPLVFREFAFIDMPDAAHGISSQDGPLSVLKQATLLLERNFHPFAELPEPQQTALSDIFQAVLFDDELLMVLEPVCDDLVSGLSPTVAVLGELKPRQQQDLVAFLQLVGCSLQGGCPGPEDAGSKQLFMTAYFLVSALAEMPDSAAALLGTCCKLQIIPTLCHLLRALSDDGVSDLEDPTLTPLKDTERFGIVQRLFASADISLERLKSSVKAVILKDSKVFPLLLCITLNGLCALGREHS
# UniProt Q9NU53: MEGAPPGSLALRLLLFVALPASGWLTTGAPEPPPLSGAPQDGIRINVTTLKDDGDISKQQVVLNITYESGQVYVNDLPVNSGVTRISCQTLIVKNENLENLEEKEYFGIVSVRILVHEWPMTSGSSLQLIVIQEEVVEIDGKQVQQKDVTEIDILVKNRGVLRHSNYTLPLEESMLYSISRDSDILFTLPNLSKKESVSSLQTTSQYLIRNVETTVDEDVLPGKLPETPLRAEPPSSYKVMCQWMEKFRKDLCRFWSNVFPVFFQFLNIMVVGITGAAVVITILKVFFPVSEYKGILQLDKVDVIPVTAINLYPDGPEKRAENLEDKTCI
# UniProt P36969, whole entry, looked up: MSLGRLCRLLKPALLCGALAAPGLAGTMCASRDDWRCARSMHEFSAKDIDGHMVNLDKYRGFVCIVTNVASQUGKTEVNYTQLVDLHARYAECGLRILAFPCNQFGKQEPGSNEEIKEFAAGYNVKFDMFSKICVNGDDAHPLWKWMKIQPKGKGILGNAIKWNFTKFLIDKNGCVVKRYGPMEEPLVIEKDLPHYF
# UniProt Q14956: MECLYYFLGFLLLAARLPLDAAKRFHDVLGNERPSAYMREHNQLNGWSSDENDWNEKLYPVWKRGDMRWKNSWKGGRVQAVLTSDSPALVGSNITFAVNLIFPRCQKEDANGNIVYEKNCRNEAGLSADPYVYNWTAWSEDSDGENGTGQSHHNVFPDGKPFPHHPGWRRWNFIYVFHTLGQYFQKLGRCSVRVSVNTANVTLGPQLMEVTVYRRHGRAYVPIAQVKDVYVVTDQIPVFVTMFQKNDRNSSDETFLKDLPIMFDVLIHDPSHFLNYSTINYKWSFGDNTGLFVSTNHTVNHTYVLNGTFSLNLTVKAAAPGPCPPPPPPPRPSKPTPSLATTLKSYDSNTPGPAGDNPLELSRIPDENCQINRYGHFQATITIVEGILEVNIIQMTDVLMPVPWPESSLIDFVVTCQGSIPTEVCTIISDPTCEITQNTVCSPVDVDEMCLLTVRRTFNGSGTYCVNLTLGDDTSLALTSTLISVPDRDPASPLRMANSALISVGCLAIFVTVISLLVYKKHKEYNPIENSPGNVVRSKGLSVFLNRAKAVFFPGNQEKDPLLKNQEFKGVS
# UniProt Q9NZD2: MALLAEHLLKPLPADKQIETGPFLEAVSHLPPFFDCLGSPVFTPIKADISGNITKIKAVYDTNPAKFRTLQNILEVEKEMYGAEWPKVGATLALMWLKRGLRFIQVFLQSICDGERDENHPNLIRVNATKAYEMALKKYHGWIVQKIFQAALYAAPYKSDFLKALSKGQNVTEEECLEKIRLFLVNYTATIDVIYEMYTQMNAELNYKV
# UniProt P22352, whole entry, looked up: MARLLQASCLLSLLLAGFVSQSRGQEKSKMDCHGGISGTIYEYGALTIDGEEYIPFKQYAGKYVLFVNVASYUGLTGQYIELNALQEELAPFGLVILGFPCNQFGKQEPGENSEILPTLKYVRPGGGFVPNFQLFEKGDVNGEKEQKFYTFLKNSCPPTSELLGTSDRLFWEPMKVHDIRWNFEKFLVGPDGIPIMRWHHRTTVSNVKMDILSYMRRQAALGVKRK
# UniProt Q9UKD1: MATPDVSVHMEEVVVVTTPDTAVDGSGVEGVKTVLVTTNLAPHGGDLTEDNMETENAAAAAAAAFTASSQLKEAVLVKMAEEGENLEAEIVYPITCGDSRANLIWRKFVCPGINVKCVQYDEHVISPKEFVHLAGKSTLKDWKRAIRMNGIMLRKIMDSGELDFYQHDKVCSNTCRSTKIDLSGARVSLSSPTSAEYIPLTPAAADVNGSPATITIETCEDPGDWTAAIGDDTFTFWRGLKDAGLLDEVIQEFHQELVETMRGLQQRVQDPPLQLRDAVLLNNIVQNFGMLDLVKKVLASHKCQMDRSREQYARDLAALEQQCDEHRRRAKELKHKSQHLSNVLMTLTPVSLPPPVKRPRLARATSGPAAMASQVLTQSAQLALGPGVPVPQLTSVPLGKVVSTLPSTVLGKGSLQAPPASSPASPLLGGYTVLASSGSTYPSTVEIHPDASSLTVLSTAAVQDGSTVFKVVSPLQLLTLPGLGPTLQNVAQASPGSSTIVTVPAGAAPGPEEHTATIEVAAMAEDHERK
# UniProt P16278: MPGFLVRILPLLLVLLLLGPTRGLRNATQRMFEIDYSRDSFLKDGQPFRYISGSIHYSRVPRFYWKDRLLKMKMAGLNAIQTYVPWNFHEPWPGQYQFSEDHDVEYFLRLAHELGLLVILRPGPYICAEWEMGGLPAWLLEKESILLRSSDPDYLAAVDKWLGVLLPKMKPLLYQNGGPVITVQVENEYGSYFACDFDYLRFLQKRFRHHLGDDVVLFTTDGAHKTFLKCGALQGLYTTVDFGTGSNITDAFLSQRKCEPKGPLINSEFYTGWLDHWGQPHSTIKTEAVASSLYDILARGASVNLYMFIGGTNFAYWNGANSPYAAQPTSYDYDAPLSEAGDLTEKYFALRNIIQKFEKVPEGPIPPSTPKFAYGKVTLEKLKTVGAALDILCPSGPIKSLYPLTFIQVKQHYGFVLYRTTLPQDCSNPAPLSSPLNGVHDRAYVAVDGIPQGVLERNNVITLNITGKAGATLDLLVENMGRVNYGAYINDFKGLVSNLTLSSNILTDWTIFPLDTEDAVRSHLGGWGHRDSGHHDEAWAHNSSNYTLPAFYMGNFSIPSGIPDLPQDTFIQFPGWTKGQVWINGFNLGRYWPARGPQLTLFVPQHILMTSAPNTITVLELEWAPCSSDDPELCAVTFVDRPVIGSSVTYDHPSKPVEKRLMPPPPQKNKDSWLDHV
# UniProt Q9NWQ4: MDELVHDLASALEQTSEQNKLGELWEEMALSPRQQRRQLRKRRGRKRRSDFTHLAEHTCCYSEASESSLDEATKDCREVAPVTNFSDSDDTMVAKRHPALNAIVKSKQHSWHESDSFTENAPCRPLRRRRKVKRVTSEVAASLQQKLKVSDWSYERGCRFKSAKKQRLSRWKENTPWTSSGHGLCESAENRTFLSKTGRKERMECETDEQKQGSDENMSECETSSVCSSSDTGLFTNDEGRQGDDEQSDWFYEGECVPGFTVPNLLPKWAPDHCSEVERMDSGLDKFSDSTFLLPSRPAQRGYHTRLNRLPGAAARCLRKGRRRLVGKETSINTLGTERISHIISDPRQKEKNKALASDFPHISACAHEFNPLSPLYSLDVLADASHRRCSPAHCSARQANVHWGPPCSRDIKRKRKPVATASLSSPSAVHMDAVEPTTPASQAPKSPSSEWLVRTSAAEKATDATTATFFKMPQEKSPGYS
# UniProt Q9BVP2: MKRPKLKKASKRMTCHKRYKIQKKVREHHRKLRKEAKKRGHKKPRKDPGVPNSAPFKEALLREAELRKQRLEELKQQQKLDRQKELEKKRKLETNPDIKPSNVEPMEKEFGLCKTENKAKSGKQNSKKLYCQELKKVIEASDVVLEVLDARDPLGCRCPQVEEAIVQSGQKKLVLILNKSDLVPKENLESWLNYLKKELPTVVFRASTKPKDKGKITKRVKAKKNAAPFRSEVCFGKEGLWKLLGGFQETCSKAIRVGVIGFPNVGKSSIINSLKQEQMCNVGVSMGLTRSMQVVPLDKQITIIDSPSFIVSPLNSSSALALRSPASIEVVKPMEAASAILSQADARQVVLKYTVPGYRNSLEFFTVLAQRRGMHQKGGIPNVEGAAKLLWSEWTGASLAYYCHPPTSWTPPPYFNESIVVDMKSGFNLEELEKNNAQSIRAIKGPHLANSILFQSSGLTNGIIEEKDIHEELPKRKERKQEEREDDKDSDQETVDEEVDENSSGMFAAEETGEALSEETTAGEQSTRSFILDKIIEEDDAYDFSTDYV
# This is one part of the list.
# Tests used:
# Assay in all cases: log2 fold change, soluble protein after heating vs DMSO (PISA); higher = thermal stabilisation; K562 cells, 10 uM, 30 min; active = over 0.2 and 3.5 SD of the protein, either way, in both replicates (recomputed)
# saracatinib = compound: CN1CCN(CCOc2cc(OC3CCOCC3)c3c(Nc4c(Cl)ccc5c4OCO5)ncnc3c2)CC1 [saracatinib]
# In short: (§1)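 Values are thermal stability changes relative to control samples and are taken from duplicates. They are stated as log2 fold changes. Before quantification by TMTpro 16plex LC-MS/MS with equalised channel sums, K562 cells at 2×10^6 cells/mL were treated with 10 μM compound for 30 min, heated in aliquots for 3 min across 48°C-58°C, pooled, extracted in PBS with 0.5% NP-40 at 4°C, and centrifuged at 21,000xg for 90 min to give the soluble supernatant.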
# alvocidib = compound: CN1CC[C@H](c2c(O)cc(O)c3c(=O)cc(-c4ccccc4Cl)oc23)[C@H](O)C1 [alvocidib]
# In short: as §1
# rucaparib = compound: CNCc1ccc(-c2[nH]c3cc(F)cc4c3c2CCNC4=O)cc1 [rucaparib]
# In short: as §1
# [1] = compound: CNc1nc(-c2ccc3c(N)n[nH]c3c2)cc(N2C[C@@H](C(=O)NC3CCCCC3)CC[C@H]2C)n1
# In short: as §1
# encorafenib = compound: COC(=O)N[C@@H](C)CNc1nccc(-c2cn(C(C)C)nc2-c2cc(Cl)cc(NS(C)(=O)=O)c2F)n1 [encorafenib]
# In short: as §1
# sotrastaurin = compound: CN1CCN(c2nc(C3=C(c4c[nH]c5ccccc45)C(=O)NC3=O)c3ccccc3n2)CC1 [sotrastaurin]
# In short: as §1
# [2] = compound: CNC(=O)C1=CC=CC=C1NC2=NC(=NC=C2Cl)NC3=C(C=C(C=C3)N4CCOCC4)OC
# In short: as §1
# Tubastatin A = compound: CN1CCc2c(c3ccccc3n2Cc2ccc(C(=O)NO)cc2)C1 [Tubastatin A]
# In short: as §1
# defactinib = compound: CNC(=O)c1ccc(Nc2ncc(C(F)(F)F)c(NCc3nccnc3N(C)S(C)(=O)=O)n2)cc1 [defactinib]
# In short: as §1
# [3] = compound: COC(=O)[C@H](CCSC)NC(=O)C1=C(C=C(C=C1)NC[C@H](CS)N)C2=CC=CC=C2
# In short: as §1
Target,log2 fold change (saracatinib),log2 fold change (alvocidib),log2 fold change (rucaparib),log2 fold change [1],log2 fold change (encorafenib),log2 fold change (sotrastaurin),log2 fold change [2],log2 fold change (Tubastatin A),log2 fold change (defactinib),log2 fold change [3]
GORASP1 (UniProt Q9BQQ3),inactive: -0.133,inactive: -0.046,inactive: 0.347,inactive: -0.069,inactive: 0.203,–,–,–,–,–
GIGYF1 (UniProt O75420),–,inactive: 0.033,–,–,–,inactive: 0.072,–,–,–,–
GIT2 (UniProt Q14161),inactive: -0.366,inactive: -0.118,–,inactive: 0.028,–,–,inactive: -0.068,–,–,–
GPT2 (UniProt Q8TD30),inactive: 0.071,inactive: -0.13,–,inactive: 0.075,–,–,–,inactive: 0.146,inactive: -0.148,inactive: -0.095
GPS2 (UniProt Q13227),–,–,inactive: 0.02,–,inactive: 0.041,inactive: -0.007,inactive: 0.008,inactive: 0.033,inactive: -0.079,inactive: -0.025
GOLPH3L (UniProt Q9H4A5),–,–,–,–,–,inactive: -0.089,–,–,inactive: -0.206,inactive: 0.018
GOLM1 (UniProt Q8NBJ4),–,inactive: 0.125,inactive: -0.118,–,inactive: 0.035,inactive: 0.193,inactive: 0.028,inactive: 0.404,inactive: 0.064,inactive: -0.088
GSDME (UniProt O60443),inactive: 0.146,–,inactive: 0.021,inactive: -0.066,inactive: 0.001,–,inactive: -0.032,–,–,–
GNL2 (UniProt Q13823),–,–,inactive: 0.381,–,inactive: 0.125,–,–,inactive: 0.06,–,–
GINM1 (UniProt Q9NU53),–,–,inactive: 0.112,–,inactive: 0.107,inactive: -0.096,inactive: 0.003,–,–,–
GPX4 (UniProt P36969),inactive: 0.043,–,inactive: 0.002,inactive: -0.037,inactive: -0.009,inactive: 0.004,inactive: -0.02,active: -0.371,inactive: -0.009,inactive: -0.013
GPNMB (UniProt Q14956),–,–,inactive: 0.007,–,inactive: -0.25,–,inactive: -0.221,–,–,–
GOPC (UniProt Q9HD26),inactive: -0.147,–,–,inactive: 0.164,–,inactive: 0.01,inactive: 0.216,inactive: 0.177,inactive: 0.033,inactive: -0.229
GPATCH4 isoform 3 (UniProt Q5T3I0),inactive: -0.125,inactive: 0.303,inactive: 0.149,inactive: -0.038,inactive: 0.057,–,–,inactive: -0.073,inactive: 0.627,inactive: -0.282
GLT8D1 (UniProt Q68CQ7),inactive: -0.23,–,inactive: 0.044,inactive: 0,inactive: 0.02,–,–,–,–,–
GLTP (UniProt Q9NZD2),–,inactive: -0.139,inactive: -0.058,–,inactive: -0.09,inactive: 0.094,inactive: -0.034,inactive: 0.003,inactive: -0.133,inactive: -0.06
GPS1 (UniProt A8K070),–,inactive: -0.006,inactive: -0.046,–,inactive: -0.006,–,inactive: 0.004,–,–,–
GREB1 (UniProt Q4ZG55),–,–,–,–,–,inactive: -0.175,inactive: -0.113,inactive: 0.264,inactive: -0.008,inactive: -0.112
GOSR1 (UniProt E9PCW1),inactive: 0.109,inactive: -0.024,inactive: 0.111,inactive: 0.017,inactive: -0.085,–,inactive: -0.02,–,–,–
GLE1 (UniProt Q53GS7),inactive: -0.211,inactive: 0.263,–,inactive: -0.081,–,–,–,–,–,–
GPX3 (UniProt P22352),inactive: 0.057,inactive: 0.089,inactive: 0.018,inactive: 0.005,inactive: -0.116,–,inactive: 0.029,inactive: 0.137,inactive: 0.094,inactive: -0.114
GNPTG (UniProt Q9UJJ9),inactive: 0.061,inactive: -0.003,–,inactive: 0.001,–,–,inactive: 0.019,inactive: 0,–,–
GLCE (UniProt O94923),–,inactive: 0.077,–,–,–,inactive: 0.004,inactive: 0.023,–,–,–
GRK6 isoform 2 (UniProt P43250),inactive: -0.208,–,–,inactive: 0.127,–,–,–,–,inactive: -0.046,inactive: 0.046
GOLGA1 (UniProt Q92805),inactive: 0.036,–,–,inactive: -0.007,–,–,inactive: 0.043,–,inactive: -0.042,inactive: -0.017
GMEB2 (UniProt Q9UKD1),inactive: 0.018,–,active: 0.275,inactive: -0.023,inactive: -0.007,inactive: -0.019,inactive: -0.065,inactive: 0.051,inactive: -0.156,inactive: 0.008
GLB1 (UniProt P16278),inactive: -0.011,–,inactive: 0,inactive: 0.002,inactive: 0.003,inactive: 0.059,inactive: 0.034,inactive: -0.032,inactive: 0.004,inactive: 0.036
GPATCH2L (UniProt Q9NWQ4),–,–,–,–,–,–,inactive: -0.136,inactive: 0.253,–,–
GNL3 (UniProt Q9BVP2),inactive: -0.124,–,inactive: -0.052,inactive: 0.044,inactive: -0.065,inactive: 0.03,–,inactive: 0.304,inactive: 0.005,inactive: 0.015
GOLGA8R (UniProt I6L899),inactive: -0.126,–,inactive: 0.189,inactive: 0.246,inactive: -0.098,–,inactive: -0.148,inactive: 0.253,inactive: -0.197,inactive: -0.086

# Single records, from the list above. Values in the order: log2 fold change (saracatinib) | log2 fold change (alvocidib) | log2 fold change (rucaparib) | log2 fold change [1] | log2 fold change (encorafenib) | log2 fold change (sotrastaurin) | log2 fold change [2] | log2 fold change (Tubastatin A) | log2 fold change (defactinib) | log2 fold change [3]
# GORASP1 (UniProt Q9BQQ3) reads inactive: -0.133 | inactive: -0.046 | inactive: 0.347 | inactive: -0.069 | inactive: 0.203 | – | – | – | – | –
# GOLGA8R (UniProt I6L899) reads inactive: -0.126 | – | inactive: 0.189 | inactive: 0.246 | inactive: -0.098 | – | inactive: -0.148 | inactive: 0.253 | inactive: -0.197 | inactive: -0.086
